Experimental data: patent US11324219B2, “Amide compound or salt thereof, agricultural and horticultural microbicide comprising the compound and the salt, and method for using the agricultural and horticultural microbicide” (Nihon Nohyaku Co., Ltd., priority 2018, dated 2022)
Some results were stated once for a whole list of compounds, not compound by compound. Some compounds share one range, which may span the group rather than tell each member.

Legend:
Assay type in all cases: in vivo
[1] = test system: wheat powdery mildew fungus Blumeria graminis; experiment: Test for control efficacy on wheat powdery mildew; settings: foliage of wheat plants (Nourin No. 61), 7 days after inoculation
[2] = test system: barley powdery mildew (Blumeria graminis hordei); experiment: Test for control efficacy on barley powdery mildew; settings: foliage of barley plants (Kanto No. 6), 7 days after inoculation
[3] = test system: cucumber powdery mildew (Sphaerotheca cucurbitae); experiment: Test for control efficacy on cucumber powdery mildew; settings: concentration of 10 ppm; foliage of cucumber plants (Suyo); 8 days after inoculation
[4] = concentration of 50 ppm or less

Measured: control efficacy (activity level)

CCS(=O)(=O)c1cc(C(F)(F)F)ccc1C(=O)N(C(C)=O)c1coc(C(F)(F)C(F)(F)F)c1 [Compound 4-114]
1 (the control rate is 10 to 19%.): [1]; [4] | [2]; concentration of 50 ppm | [3]

CCS(=O)(=O)c1cc(C(F)(F)F)ccc1C(=O)Nc1cc(CCC(F)(F)F)sc1C(=O)OC [Compound 5-50]
1 (the control rate is 10 to 19%.): [1]; concentration of 10 ppm | [1]; [4] | [2]; concentration of 10 ppm | [2]; concentration of 50 ppm | [3]

CCS(=O)(=O)c1cc(C(F)(F)F)ccc1C(=O)N(C(C)=O)c1cc(CCC(F)(F)F)sc1C(=O)OC [Compound 5-52]
1 (the control rate is 10 to 19%.): [1]; concentration of 10 ppm | [1]; [4] | [2]; concentration of 50 ppm | [3]

CCS(=O)(=O)c1cc(C(F)(F)F)ccc1C(=O)N(C(C)=O)c1cc(CCC(C)(C)C)sc1C(=O)OC [Compound 5-60]
1 (the control rate is 10 to 19%.): [1]; concentration of 10 ppm | [1]; [4] | [2]; concentration of 10 ppm | [2]; concentration of 50 ppm | [3]
